The source of these data is patent US20020164640A1.

Sequences of proteins named here, by UniProt entry; tags and fusion partners are left off. A change or cut given only in a name is not applied to a line headed by its entry.
UniProt P51617: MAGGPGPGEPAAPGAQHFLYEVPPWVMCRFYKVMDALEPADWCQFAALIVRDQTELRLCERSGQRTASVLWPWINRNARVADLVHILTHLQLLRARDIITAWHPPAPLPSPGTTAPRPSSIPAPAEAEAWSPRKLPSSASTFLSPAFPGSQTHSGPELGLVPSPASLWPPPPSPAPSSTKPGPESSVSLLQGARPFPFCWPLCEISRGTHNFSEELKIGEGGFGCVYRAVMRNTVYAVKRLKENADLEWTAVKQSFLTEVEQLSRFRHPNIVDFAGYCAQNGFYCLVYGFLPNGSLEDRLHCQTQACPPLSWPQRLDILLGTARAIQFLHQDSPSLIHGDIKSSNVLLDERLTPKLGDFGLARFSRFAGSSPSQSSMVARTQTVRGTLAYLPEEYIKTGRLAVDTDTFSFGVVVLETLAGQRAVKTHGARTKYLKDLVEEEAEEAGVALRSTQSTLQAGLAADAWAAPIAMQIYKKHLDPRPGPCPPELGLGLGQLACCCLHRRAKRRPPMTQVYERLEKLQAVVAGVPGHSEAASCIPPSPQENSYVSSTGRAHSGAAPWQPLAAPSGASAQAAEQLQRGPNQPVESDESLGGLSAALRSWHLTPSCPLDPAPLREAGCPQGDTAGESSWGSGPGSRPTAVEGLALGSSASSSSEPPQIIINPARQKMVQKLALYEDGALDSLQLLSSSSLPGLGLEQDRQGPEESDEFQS
UniProt Q99836: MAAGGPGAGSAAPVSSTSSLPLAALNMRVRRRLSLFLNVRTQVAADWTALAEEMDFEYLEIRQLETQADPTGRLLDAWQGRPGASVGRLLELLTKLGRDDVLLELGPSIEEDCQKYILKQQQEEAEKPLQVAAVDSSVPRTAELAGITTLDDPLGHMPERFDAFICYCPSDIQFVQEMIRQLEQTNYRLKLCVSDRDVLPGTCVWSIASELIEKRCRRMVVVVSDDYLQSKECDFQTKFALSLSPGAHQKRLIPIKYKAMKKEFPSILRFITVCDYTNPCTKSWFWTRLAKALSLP
UniProt P58753: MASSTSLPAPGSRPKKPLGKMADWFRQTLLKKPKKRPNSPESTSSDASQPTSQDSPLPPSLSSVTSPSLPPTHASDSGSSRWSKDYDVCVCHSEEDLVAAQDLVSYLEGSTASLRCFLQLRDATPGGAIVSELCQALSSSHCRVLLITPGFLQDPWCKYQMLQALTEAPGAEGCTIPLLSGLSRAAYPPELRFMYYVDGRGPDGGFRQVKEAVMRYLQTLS

Results are given in words; binding and its absence hold for the method and conditions named. In cells and extracts the contact can be indirect. Some binding calls cover weakened binding; strength is not graded here. For some of these results: Tags and fused reporters may be left off the sequences shown.

For assay [1], the target named is IRAK (UniProt P51617). In words: co-immunoprecipitation from transfected HEK293 cells: anti-AU1 IP, anti-IRAK western blot. (In general: In western blotting, separated proteins are transferred to a membrane and probed.)
For assay [2], the target named is IRAK (UniProt P51617). Description: co-immunoprecipitation from transfected HEK293 cells.
Assay [3] deals with full length labelled MyD88 (AU-1-MyD88) (UniProt Q99836). In words: co-immunoprecipitation from transfected HEK293 cells: anti-AU1 IP, anti-HA immunoblot.
The target of assay [4] is T1, myc-IRAK-2 (UniProt O43187).
T1 sequence (looked up): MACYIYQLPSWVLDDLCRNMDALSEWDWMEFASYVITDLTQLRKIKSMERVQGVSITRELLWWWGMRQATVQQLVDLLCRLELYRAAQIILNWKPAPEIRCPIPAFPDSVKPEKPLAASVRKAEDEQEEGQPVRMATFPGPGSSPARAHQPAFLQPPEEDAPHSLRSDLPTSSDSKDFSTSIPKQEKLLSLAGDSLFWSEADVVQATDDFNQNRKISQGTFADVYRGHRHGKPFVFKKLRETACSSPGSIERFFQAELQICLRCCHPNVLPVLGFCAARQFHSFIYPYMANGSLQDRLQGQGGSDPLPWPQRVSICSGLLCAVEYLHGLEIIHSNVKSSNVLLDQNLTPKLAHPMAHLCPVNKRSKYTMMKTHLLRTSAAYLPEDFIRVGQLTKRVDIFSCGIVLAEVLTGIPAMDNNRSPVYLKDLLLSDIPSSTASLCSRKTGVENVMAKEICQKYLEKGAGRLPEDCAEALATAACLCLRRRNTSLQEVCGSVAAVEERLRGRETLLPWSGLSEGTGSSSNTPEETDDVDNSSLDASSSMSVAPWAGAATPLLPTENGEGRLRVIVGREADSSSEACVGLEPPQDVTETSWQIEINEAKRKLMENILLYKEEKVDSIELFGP
In words: co-immunoprecipitation from transfected HEK293 cells: anti-HA IP, anti-myc immunoblot.

With “full length labelled MyD88 (AU-1-MyD88) (from UniProt Q99836 1-296)”, the binding entry in assay [1] and in assay [2] was “binds” in each case.

Consider “full-length labelled MAL-1 (HA-MAL-1) (from UniProt P58753 1-215)”, for which the binding result in assay [3] and in assay [4] was “binds” throughout.
